{
  "source": "the supplement of paper PMC6411743",
  "assay_in_all_cases": "NP40-soluble protein abundance relative to vehicle (solubility fold change) (ratio); higher = more soluble protein in presence of AMP-PNP",
  "key": {"A0A0A6YY96|P48200": {"molecular_target": "T1, A0A0A6YY96|P48200 (UniProt P48200)", "T1 sequence (whole entry)": "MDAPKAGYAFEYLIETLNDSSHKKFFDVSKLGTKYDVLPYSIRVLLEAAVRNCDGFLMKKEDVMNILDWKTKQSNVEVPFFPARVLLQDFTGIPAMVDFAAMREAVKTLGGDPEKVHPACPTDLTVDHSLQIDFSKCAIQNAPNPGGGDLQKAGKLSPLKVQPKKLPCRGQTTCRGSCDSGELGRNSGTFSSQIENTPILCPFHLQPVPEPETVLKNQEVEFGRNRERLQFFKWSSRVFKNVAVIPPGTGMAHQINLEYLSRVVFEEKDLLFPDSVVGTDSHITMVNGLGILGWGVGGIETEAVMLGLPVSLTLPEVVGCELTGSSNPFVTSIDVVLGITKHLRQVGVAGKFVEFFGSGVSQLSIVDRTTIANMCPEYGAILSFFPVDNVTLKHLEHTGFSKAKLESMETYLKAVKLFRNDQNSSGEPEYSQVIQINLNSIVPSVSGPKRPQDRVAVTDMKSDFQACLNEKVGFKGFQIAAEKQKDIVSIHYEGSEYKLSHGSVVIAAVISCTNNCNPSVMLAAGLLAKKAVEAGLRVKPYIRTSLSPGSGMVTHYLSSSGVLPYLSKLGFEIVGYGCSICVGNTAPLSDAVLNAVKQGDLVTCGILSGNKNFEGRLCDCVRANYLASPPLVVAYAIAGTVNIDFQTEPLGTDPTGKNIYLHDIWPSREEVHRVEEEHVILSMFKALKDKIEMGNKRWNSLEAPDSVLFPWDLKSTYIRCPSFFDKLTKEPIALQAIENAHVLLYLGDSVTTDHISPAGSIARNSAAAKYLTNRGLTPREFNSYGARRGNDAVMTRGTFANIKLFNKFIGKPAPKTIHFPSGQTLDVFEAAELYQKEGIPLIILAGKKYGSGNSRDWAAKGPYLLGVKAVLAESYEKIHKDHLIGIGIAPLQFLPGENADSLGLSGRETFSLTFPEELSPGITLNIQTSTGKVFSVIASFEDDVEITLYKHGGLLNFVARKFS", "outline": "(§1)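 Eight concentrations, 0.1 to 10 mM, were tested on Jurkat crude lysate for 10 min at room temperature and then 3 min at 37 °C, in three independent experiments. The lysate was solubilised with 0.8% NP40 and benzonase, ultracentrifuged, and the supernatant TMT-labelled for LC-MS/MS. Each value is the fold change against the detergent-processed vehicle in its own replicate, from vsn-normalised intensities.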"}, "A0A0C4DFV0|Q9H469": {"molecular_target": "T2, A0A0C4DFV0|Q9H469 (UniProt Q9H469)", "T2 sequence (whole entry)": "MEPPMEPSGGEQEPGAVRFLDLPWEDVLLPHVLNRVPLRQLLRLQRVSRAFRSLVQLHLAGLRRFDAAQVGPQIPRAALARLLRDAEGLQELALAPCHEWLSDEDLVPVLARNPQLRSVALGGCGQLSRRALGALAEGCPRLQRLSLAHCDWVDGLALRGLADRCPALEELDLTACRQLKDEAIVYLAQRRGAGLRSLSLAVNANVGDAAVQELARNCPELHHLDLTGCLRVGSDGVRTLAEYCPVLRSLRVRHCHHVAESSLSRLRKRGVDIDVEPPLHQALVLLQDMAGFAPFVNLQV", "outline": "as §1"}, "A0A0C4DFX7|Q9H967": {"molecular_target": "T3, A0A0C4DFX7|Q9H967 (UniProt Q9H967)", "T3 sequence (whole entry)": "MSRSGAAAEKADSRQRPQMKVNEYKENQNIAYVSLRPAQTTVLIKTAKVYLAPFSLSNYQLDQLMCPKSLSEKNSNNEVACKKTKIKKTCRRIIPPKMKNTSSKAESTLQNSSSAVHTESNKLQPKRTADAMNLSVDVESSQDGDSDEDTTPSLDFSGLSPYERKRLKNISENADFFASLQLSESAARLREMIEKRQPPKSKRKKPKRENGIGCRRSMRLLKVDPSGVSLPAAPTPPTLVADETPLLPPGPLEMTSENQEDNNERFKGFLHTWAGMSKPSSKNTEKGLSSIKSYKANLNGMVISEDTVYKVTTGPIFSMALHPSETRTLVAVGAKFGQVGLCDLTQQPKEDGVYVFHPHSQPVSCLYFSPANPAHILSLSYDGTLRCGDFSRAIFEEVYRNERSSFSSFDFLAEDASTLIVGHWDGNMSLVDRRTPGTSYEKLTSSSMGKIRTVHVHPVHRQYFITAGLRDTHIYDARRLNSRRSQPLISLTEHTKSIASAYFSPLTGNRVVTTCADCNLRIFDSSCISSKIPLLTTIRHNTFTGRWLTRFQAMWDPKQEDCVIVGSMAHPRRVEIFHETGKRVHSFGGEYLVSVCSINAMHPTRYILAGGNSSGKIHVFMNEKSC", "outline": "as §1"}, "A0A0C4DG89|Q7L014": {"molecular_target": "T4, A0A0C4DG89|Q7L014 (UniProt Q7L014)", "T4 sequence (whole entry)": "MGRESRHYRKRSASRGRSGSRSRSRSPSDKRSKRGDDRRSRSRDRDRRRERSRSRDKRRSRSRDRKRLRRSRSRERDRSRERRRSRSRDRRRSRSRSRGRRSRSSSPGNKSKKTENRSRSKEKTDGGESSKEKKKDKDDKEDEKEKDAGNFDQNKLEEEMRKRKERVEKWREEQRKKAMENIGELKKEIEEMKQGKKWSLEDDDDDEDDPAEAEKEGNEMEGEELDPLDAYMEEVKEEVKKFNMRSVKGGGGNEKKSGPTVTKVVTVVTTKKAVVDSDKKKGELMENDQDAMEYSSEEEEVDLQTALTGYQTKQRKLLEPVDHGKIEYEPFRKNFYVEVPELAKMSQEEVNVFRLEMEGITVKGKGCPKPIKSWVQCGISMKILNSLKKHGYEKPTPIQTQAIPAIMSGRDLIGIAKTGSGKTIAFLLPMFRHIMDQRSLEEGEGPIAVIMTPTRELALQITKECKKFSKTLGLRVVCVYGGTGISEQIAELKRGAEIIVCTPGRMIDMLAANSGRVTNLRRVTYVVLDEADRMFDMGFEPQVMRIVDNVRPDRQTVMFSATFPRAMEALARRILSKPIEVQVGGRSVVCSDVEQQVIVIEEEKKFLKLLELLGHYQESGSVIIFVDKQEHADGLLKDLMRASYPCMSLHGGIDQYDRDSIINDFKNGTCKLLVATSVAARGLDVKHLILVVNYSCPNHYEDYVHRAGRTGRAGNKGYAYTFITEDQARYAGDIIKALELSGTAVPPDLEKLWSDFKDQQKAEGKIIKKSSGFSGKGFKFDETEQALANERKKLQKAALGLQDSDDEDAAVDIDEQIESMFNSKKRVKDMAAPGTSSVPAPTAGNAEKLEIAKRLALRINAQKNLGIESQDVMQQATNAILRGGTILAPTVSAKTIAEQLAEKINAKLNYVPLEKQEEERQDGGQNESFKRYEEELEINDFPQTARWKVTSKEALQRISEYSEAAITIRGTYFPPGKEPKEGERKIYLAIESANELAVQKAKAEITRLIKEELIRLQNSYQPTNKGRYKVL", "outline": "as §1"}, "[1]": {"molecular_target": "T5, A0A0C4DGS5|B7ZC06 and related entries (UniProt Q08379)", "T5 sequence (whole entry)": "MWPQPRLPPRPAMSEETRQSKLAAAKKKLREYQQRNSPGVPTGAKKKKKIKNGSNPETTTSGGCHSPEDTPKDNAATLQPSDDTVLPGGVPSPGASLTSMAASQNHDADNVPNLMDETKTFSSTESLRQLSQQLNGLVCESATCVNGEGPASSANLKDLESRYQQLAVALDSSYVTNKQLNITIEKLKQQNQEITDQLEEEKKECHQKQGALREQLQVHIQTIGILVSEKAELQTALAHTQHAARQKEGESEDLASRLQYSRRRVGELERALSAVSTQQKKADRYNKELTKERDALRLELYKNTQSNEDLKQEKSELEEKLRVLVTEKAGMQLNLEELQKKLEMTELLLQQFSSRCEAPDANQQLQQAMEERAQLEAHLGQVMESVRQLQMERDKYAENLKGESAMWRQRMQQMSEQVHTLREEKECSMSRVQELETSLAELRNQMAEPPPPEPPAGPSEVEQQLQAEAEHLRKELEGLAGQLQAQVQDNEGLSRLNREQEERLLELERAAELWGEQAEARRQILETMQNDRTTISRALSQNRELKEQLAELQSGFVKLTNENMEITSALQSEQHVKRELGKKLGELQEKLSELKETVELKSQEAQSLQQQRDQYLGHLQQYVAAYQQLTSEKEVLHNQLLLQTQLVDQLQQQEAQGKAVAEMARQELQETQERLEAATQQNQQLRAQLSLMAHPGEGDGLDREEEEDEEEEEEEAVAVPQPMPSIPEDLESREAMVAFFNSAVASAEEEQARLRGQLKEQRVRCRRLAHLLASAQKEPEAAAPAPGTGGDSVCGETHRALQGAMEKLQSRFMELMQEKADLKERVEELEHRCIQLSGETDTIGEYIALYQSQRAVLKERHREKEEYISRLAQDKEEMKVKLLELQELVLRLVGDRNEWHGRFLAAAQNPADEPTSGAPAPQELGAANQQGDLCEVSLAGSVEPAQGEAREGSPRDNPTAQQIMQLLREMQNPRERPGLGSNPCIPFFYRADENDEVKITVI", "outline": "as §1"}},
  "note": "± gives the standard deviation of the averaged measurements. The list shows a part of the results, in another mix than the full data.",
  "data": [
    {"smiles": "Nc1ncnc2c1ncn2[C@@H]1O[C@H](COP(=O)(O)OP(=O)(O)NP(=O)(O)O)[C@@H](O)[C@H]1O", "note": "[adenylyl imidodiphosphate]", "values": [
      {"measurement": "NP40-soluble protein abundance", "setting": "A0A0A6YY96|P48200; concentration: 1mM", "value": "1.01 ± 0.063"},
      {"measurement": "NP40-soluble protein abundance", "setting": "A0A0A6YY96|P48200; concentration: 2mM", "value": "1 ± 0.047"},
      {"measurement": "NP40-soluble protein abundance", "setting": "A0A0A6YY96|P48200; concentration: 4mM", "value": "0.971 ± 0.052"},
      {"measurement": "NP40-soluble protein abundance", "setting": "A0A0A6YY96|P48200; concentration: 6mM", "value": "1 ± 0.011"},
      {"measurement": "NP40-soluble protein abundance", "setting": "A0A0A6YY96|P48200; concentration: 8mM", "value": "0.998 ± 0.023"},
      {"measurement": "NP40-soluble protein abundance", "setting": "A0A0A6YY96|P48200; concentration: 10mM", "value": "0.974 ± 0.044"},
      {"measurement": "NP40-soluble protein abundance", "setting": "A0A0C4DFV0|Q9H469; concentration: 1mM", "value": "0.981 ± 0.025"},
      {"measurement": "NP40-soluble protein abundance", "setting": "A0A0C4DFV0|Q9H469; concentration: 2mM", "value": "0.951 ± 0.032"},
      {"measurement": "NP40-soluble protein abundance", "setting": "A0A0C4DFV0|Q9H469; concentration: 4mM", "value": "0.979 ± 0.023"},
      {"measurement": "NP40-soluble protein abundance", "setting": "A0A0C4DFV0|Q9H469; concentration: 6mM", "value": "0.972 ± 0.066"},
      {"measurement": "NP40-soluble protein abundance", "setting": "A0A0C4DFV0|Q9H469; concentration: 8mM", "value": "0.952 ± 0.019"},
      {"measurement": "NP40-soluble protein abundance", "setting": "A0A0C4DFV0|Q9H469; concentration: 10mM", "value": "0.9788 ± 0.0055"},
      {"measurement": "NP40-soluble protein abundance", "setting": "A0A0C4DFX7|Q9H967; concentration: 1mM", "value": "0.993 ± 0.03"},
      {"measurement": "NP40-soluble protein abundance", "setting": "A0A0C4DFX7|Q9H967; concentration: 2mM", "value": "0.995 ± 0.019"},
      {"measurement": "NP40-soluble protein abundance", "setting": "A0A0C4DFX7|Q9H967; concentration: 4mM", "value": "1.05 ± 0.04"},
      {"measurement": "NP40-soluble protein abundance", "setting": "A0A0C4DFX7|Q9H967; concentration: 6mM", "value": "1.071 ± 0.002"},
      {"measurement": "NP40-soluble protein abundance", "setting": "A0A0C4DFX7|Q9H967; concentration: 8mM", "value": "1.07 ± 0.012"},
      {"measurement": "NP40-soluble protein abundance", "setting": "A0A0C4DFX7|Q9H967; concentration: 10mM", "value": "1.09 ± 0.046"},
      {"measurement": "NP40-soluble protein abundance", "setting": "A0A0C4DG89|Q7L014; concentration: 1mM", "value": "0.9721 ± 0.0097"},
      {"measurement": "NP40-soluble protein abundance", "setting": "A0A0C4DG89|Q7L014; concentration: 2mM", "value": "0.942 ± 0.026"},
      {"measurement": "NP40-soluble protein abundance", "setting": "A0A0C4DG89|Q7L014; concentration: 4mM", "value": "0.912 ± 0.032"},
      {"measurement": "NP40-soluble protein abundance", "setting": "A0A0C4DG89|Q7L014; concentration: 6mM", "value": "0.928 ± 0.021"},
      {"measurement": "NP40-soluble protein abundance", "setting": "A0A0C4DG89|Q7L014; concentration: 8mM", "value": "0.938 ± 0.045"},
      {"measurement": "NP40-soluble protein abundance", "setting": "A0A0C4DG89|Q7L014; concentration: 10mM", "value": "0.975 ± 0.045"},
      {"measurement": "NP40-soluble protein abundance", "setting": "[1]; concentration: 1mM", "value": "1.02 ± 0.032"},
      {"measurement": "NP40-soluble protein abundance", "setting": "[1]; concentration: 2mM", "value": "1.08 ± 0.064"},
      {"measurement": "NP40-soluble protein abundance", "setting": "[1]; concentration: 4mM", "value": "1.03 ± 0.019"}
    ]}
  ]
}
